# Assay results: US7399847 (GENERAL HOSPITAL, dated 2008)
# These are yes or no findings as the source states them, for the method shown. Some results given as binding are weak or reduced against the parent protein; the word gives no strength.
# T1: E-selectin Ig chimera (human) (UniProt P16581)
# T1 sequence (looked up): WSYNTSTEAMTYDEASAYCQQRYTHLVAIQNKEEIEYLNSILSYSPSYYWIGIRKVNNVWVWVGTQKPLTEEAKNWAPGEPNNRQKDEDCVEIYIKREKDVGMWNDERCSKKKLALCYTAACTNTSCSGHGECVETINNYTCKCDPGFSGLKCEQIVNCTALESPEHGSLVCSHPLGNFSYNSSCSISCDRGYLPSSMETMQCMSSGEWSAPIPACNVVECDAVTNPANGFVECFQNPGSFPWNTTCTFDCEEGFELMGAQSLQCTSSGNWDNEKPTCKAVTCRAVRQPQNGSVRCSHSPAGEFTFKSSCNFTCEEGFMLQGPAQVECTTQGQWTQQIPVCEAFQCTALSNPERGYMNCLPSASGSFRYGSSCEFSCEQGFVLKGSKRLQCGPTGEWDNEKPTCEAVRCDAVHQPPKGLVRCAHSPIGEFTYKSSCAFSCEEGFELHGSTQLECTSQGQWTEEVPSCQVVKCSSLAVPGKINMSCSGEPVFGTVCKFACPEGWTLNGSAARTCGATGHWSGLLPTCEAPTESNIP
# B1: PSGL-1 residues 38-57 with tyrosines converted to phenylalanine, on the CD43 repeat elements and transmembrane domain (ligand, not shown: small tags and cut ends)
# chain: RDRRQATEFEFLDFDFLPETITTNSPETSSRTSGAPVTTAASSLETSRGTSGPPLTMATVSLETSKGTSGPPVTMATDSLETSTGTTGPPVTMTTGSLEPSSGASGPQVSS
# Molecular target: T1, E-selectin Ig chimera (human)
# Experiment: adhesion of 51Cr-labelled transfected COS cells to immobilized E-selectin Ig
binder,measurement,value
B1,binding,binds
